In patent publication US20130178441A1, “Methods for Extending Progression-Free Survival using 10-Propargyl-10-Deazaaminopterin” (ALLOS THERAPEUTICS, INC., priority 2010, published 2013):

How the values were obtained:
relapsed/refractory PTCL = assay: PROPEL subset analysis: patients previously treated with ICE-based regimens (N=20) vs other patients (n=89); type: in vivo, human
Excerpt: The prognosis of aggressive PTCL is dismal. Investigators have developed salvage regimens attempting to improve outcomes for patients with relapsed or refractory disease. One such regimen frequently used is ifosfamide, carboplatin, and etoposide (ICE) or ICE-based regimens (eg, and rituximab-ICE [RICE] and dexamethasome-ICE [DICE]). These regimens can have response rates approaching 70% and patients may proceed to a stem cell transplant, yet most patients tend to relapse quickly (Horwitz et al Blood 2005; 106:a2679). Thus, optimal approaches for patients with relapsed or refractory disease are needed, and agents based on a unique mechanism of action warrant study. This analysis was conducted to determine if pralatrexate offered a beneficial treatment option for patients after treatment with an ICE/RICE/DICE regimen. Methods: Pralatrexate was administered via intravenous push over 3 to 5 minutes at 30 mg/m^2/week for six weeks in 7-week cycles with concurrent 1 mg vitamin B12 intramuscular every 8 to 10 weeks and folic acid 1.0 to 1.25 mg by mouth once daily. 109 patients were treated with pralatrexate in the PROPEL study. All patients in the PROPEL study had received at least 1 prior therapy for PTCL. A subset of 20 patients had received ICE, RICE or DICE at some point prior to treatment with pralatrexate. […]

[1] = tested on: patients with relapsed or refractory PTCL; assay: PROPEL analysis by treatment duration: treatment discontinuation and adverse events; type: in vivo, human; details: 45 patients who did not complete cycle 1
Experimental: The pivotal PROPEL study of pralatrexate (FOLOTYN®) in patients with relapsed or refractory PTCL reported a rapid response to treatment in a heavily pretreated patient population. The majority of patients (63% of responders) responded by their first assessment at 7 weeks (the end of cycle 1). The present analysis assessed if there were any unique characteristics of patients who were unable to complete the first cycle of therapy and to assess the outcomes of patients who received ≧1 or ≧2 cycles of pralatrexate. Pralatrexate, a folate analog targeting dihydrofolate reductase, was approved in the United States for treatment of relapsed or refractory PTCL based on the PROPEL study. Methods: In PROPEL, patients received 30 mg/m^2 pralatrexate once weekly for 6 weeks in successive 7-week cycles. […] Cycle completion was determined receiving ≧1 dose in the following cycle. Thus, the subgroup of patients who completed ≧1 (n=64) includes those patients who only completed 1 cycle+the 43 who completed ≧2 cycles of treatment. […] However, the patients not completing cycle lwere more likely to have the angioimmunoblastic subtype (20% vs 6%). Patients in each subgroup received a median of 3 prior treatment regimens.
The most frequent reasons for treatment discontinuation were similar for patients with <1 cycle, ≧1 cycle or ≧2 cycles, although the incidence of discontinuation was lower for patients with ≧1 or 2 cycles. […] However, the percentage of patients in whom mucosal inflammation led to treatment discontinuation was similar (<1: 4%; ≧1: 6%; ≧2: 2%). […] Patients who were unable to complete cycle 1 were more likely to have quickly progressed through multiple lines of therapy and were more likely to have the angioimmunoblastic subtype, which a subtype is thought to have a different biology than other PTCL subtypes and lower chemosensitivity. Further analysis of this subtype is warranted.

For `C#CCC(Cc1cnc2nc(N)nc(N)c2n1)c1ccc(C(=O)N[C@@H](CCC(=O)O)C(=O)O)cc1` (mixture of isomers) [Pralatrexate, (2S)-2-[[4-[(1RS)-1-[(2,4-diaminopteridin-6-yl)methyl]but-3-ynyl]benzoyl]amino]pentanedioic acid], the “Median time on treatment” value (relapsed/refractory PTCL; 20 patients with prior ICE/RICE/DICE) was 139 days, the “Median time on treatment” value (relapsed/refractory PTCL; remaining 89 patients) was 64 days and the “Discontinued due to progressive disease (PD)” value [1] was 62%. For the same compound, the “Discontinued due to stem cell transplant after achieving a response to pralatrexate” value [1] was 2% and the “Discontinued for other reasons” value [1] was 7%.
